Reference: the supplement of paper PMC11150407
Hit rate of the full screen: of about 3,000 compounds, about 45 (2%) showed an effect of 50% or more. The list shows a part of the results.

tested on: MOLM1 and UCSD/AML1 (averaged); assay: cell viability relative to DMSO control (POC); higher = less growth inhibition; conditions: 1 µM; 72 h
Method: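 Primary viability screen in the 3q26 EVI1-high AML cell lines MOLM1 and UCSD/AML1, compounds at 1 uM for 72 h. ATP CellTiter-Glo read-out given as percent viable over DMSO control (POC), averaged over duplicates. This mapping covers the TimTec NDL-3000 natural derivative library, whose compounds are identified by TimTec catalogue codes (ST...).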

First: COc1ccc(-c2nc(C)c(C(C)=O)n2O)cc1OC
Second: COc1ccc(/C=C/C(=O)Nc2ccc(C(C)=O)cc2)cc1OC
The cell viability of the first is higher: 98.5% for the first, 85.5% for the second.

First: COc1cc(Cc2nccc3cc(OC)c(OC)cc23)c(NC(=O)c2ccc(F)cc2)cc1OC
Second: CCC(=O)NC(c1ccc(OC)c(OC)c1)c1nccc2cc(OC)c(OC)cc12 (stereo not drawn)
The cell viability of the first is higher: 109% for the first, 92.8% for the second.

Going from `C=CCN(C(=O)CSc1nc2c(=O)[nH]cnc2n1-c1ccccc1)c1ccccc1` to `C=CCN(C(=O)CSc1nc2c(=O)[nH]cnc2n1CC)c1ccccc1`, the cell viability rises from 98% to 109%.

Compared with `CCOc1ccc(C(F)(F)F)cc1N=Cc1c(O)c(O)c(C(C)C)c2cc(C)c(-c3c(C)cc4c(C(C)C)c(O)c(O)c(C=Nc5cc(C(F)(F)F)ccc5OCC)c4c3O)c(O)c12`, `Cc1cc2c(C(C)C)c(O)c(O)c(C=NCc3cccnc3)c2c(O)c1-c1c(C)cc2c(C(C)C)c(O)c(O)c(C=NCc3cccnc3)c2c1O` is lower in cell viability: 105% for the first, 86.2% for the second.

First: Cc1cc2[nH]c(=O)cc(C)c2c(C)c1S(=O)(=O)N1CCCCC1
Second: Cc1cc(C)c2c(CN3CCN(c4cccc(C)c4C)CC3)cc(=O)oc2c1
The cell viability of the first is higher: 112% for the first, 104% for the second.

First: O=C(CCNc1cccc(Br)c1)c1cc2ccccc2oc1=O
Second: CCOc1cccc2cc(C(=O)NCc3ccccn3)c(=O)oc12
The cell viability of the first is higher: 103% for the first, 99.7% for the second.

First: CCOC(=O)C1=C(C)N(C)C(=O)NC1c1cc(Br)c(O)c(OC)c1 (stereo not drawn)
Second: CCN1C(=O)NC(c2cc(Br)c(O)c(OC)c2)C(C(=O)OC(C)C)=C1C (stereo not drawn)
The cell viability of the first is higher: 116% for the first, 109% for the second.

Compared with `N#C/C(=C\c1c[nH]c2ccccc12)C(=O)N1CCc2ccccc2C1`, `O=C(Cn1c(=O)cc(C(=O)N2CCc3ccccc3C2)c2ccccc21)Nc1ccc(Cl)cc1` is higher in cell viability: 97.1% for the first, 105% for the second.

Compared with `O=[N+]([O-])c1ccc(-c2csc(N3CCc4ccccc4C3)n2)cc1`, `CN(CC(=O)N1CCc2ccccc2C1)S(=O)(=O)c1cc(Cl)ccc1Cl` is higher in cell viability: 86.3% for the first, 91.5% for the second.

First: COc1ccc(C2c3[nH]c4ccccc4c3CCN2Cc2cccc(F)c2)cc1 (stereo not drawn)
Second: COc1ccc(C2c3[nH]c4ccccc4c3CCN2C(=O)c2cccs2)cc1 (stereo not drawn)
The cell viability of the first is lower: 94.4% for the first, 105% for the second.

Compared with `COc1ccc(-c2c(-c3ccccc3)c3ccc(O)cc3oc2=O)cc1OC`, `COc1ccccc1-c1c(C(F)(F)F)oc2cc(OC(=O)c3ccccc3F)ccc2c1=O` is lower in cell viability: 104% for the first, 102% for the second.

Compared with `O=C(O)CSc1nc2nc[nH]c(=O)c2[nH]1`, `Cn1c(SCC(=O)Nc2ccc(Br)cc2)nc2c(=O)[nH]cnc21` is higher in cell viability: 89.4% for the first, 108% for the second.

First: Cc1ccc2c(c1)C1C=CCC1C(C(=O)O)N2 (stereo not drawn)
Second: COc1ccc(C)cc1NC(=O)C(=O)NCc1ccccc1
The cell viability of the first is lower: 94% for the first, 101% for the second.

First: COc1cc(C(=O)Nc2c(C)c(C)c3c(c2C)NC(=O)CO3)cc(OC)c1OC
Second: COc1cc(C(=O)NC(=S)Nc2cccc(Cl)c2C)cc(OC)c1OC
The cell viability of the first is higher: 117% for the first, 87.6% for the second.

`COc1ccc(/C=C/C(=O)c2ccccc2)cc1COc1ccc([N+](=O)[O-])cc1` and `COc1ccc(/C=C/C(=O)O)cc1COc1ccccc1` are the same in cell viability: 101% for the first, 101% for the second.

Going from `O=C(Cn1c(=O)cc(C(=O)NCc2ccccc2)c2ccccc21)Nc1cccc(Cl)c1` to `CCCNC(=O)c1cc(=O)n(CC(=O)Nc2ccccc2)c2ccccc12`, the cell viability falls from 103% to 99.4%.

First: CC(Nc1n[nH]c(=S)[nH]c1=O)C(=O)OCc1ccccc1 (stereo not drawn)
Second: Cc1cccc(/C=N/NC(=O)C(C)Nc2n[nH]c(=O)[nH]c2=O)c1 (stereo not drawn)
The cell viability of the first is lower: 97.2% for the first, 97.3% for the second.

First: OC[C@H]1O[C@H](O[C@H]2[C@H](O)[C@@H](O)[C@@H](O)O[C@@H]2CO)[C@H](O)[C@@H](O)[C@@H]1O
Second: Nc1ncnc2c1ncn2[C@@H]1O[C@H](COP(=O)(O)O)[C@H](O)C1O (stereo partly drawn)
The cell viability of the first is lower: 89.7% for the first, 94.8% for the second.

Compared with `CC1CCN(C(=O)CSc2nc3ccccc3c(=O)[nH]2)CC1`, `O=C(CSc1nc2ccccc2c(=O)[nH]1)NCc1ccccc1Cl` is higher in cell viability: 93.8% for the first, 107% for the second.

Going from `Cc1ccc2[nH]c(C)c(CCNC(=O)Nc3ccc(Cl)cc3)c2c1` to `Cc1[nH]c2ccc(OC(F)(F)F)cc2c1CCNC(=O)c1cccc(F)c1F`, the cell viability rises from 92.2% to 93.6%.

First: O=C(NCCCO)C(=O)NCCCO
Second: Cc1ccc(OCCNC(=O)C(=O)NCCC(C)C)cc1
The cell viability of the first is lower: 102% for the first, 104% for the second.

First: COc1ccc2c(c1)c(CC(=O)NCCc1ccccc1)c(C)n2C(=O)c1ccc(Cl)cc1
Second: COc1ccc2c(c1)c(CC(=O)NC1CC1)c(C)n2C(=O)c1ccc(Cl)cc1
The cell viability of the first is higher: 99.1% for the first, 90.8% for the second.

Compared with `CNC(=O)c1ccccc1NC(=O)C(=O)c1c[nH]c2ccccc12`, `CCCNC(=O)c1cc(=O)n(CC(=O)Nc2ccccc2F)c2ccccc12` is lower in cell viability: 111% for the first, 87.9% for the second.

First: CCOC(=O)C1=C(C)NC2=C(C(=O)CC(c3ccc(Cl)cc3)C2)C1c1ccc(O)c(OC)c1 (stereo not drawn)
Second: COC(=O)C1=C(C)NC2=C(C(=O)CC(c3ccc(Cl)cc3)C2)C1c1ccc(O)c(OC)c1 (stereo not drawn)
The cell viability of the first is higher: 101% for the first, 99.8% for the second.

First: COc1ccc(-c2nc(CSc3nc4c(=O)[nH]c(C)nc4n3C)c(C)o2)cc1
Second: Cc1cccc(CSc2nc3c(=O)[nH]cnc3n2C)c1
The cell viability of the first is higher: 104% for the first, 89.3% for the second.

Compared with `COc1ccc(C(=O)Nc2ccc(Cn3ccnc3)cc2)cc1OC`, `CCCCOC(=O)c1ccc(NC(=O)c2ccc(OC)c(OC)c2)cc1` is lower in cell viability: 103% for the first, 93.6% for the second.

First: COc1cc(C(=O)N2CCCc3cccc(OC)c32)cc(OC)c1OC
Second: COC(=O)C1=C(C)NC2=C(C(=O)CCC2)C1c1cc(OC)c(OC)c(OC)c1 (stereo not drawn)
The cell viability of the first is lower: 82.3% for the first, 94.9% for the second.

Going from `COc1ccc(C(=O)CCNc2ccc3ncn(C)c3c2)cc1OC` to `COCCOC(=O)c1c(C)n(CCOc2ccc(Cl)cc2C)c2c1cc(O)c1ccccc12`, the cell viability falls from 99.9% to 95.4%.

Going from `O=C(O)/C=C/C(=O)c1ccc(Cl)cc1` to `Cc1ccc(C(=O)CC(NCc2ccccc2)C(=O)O)cc1` (stereo not drawn), the cell viability rises from 92.2% to 105%.

First: NC(N)=NCCC[C@H](NC(=O)OCC1c2ccccc2-c2ccccc21)C(=O)O
Second: O=C(Nc1ccc(Cl)cc1)c1ccc2c(c1O)C(=O)c1ccccc1C2=O
The cell viability of the first is higher: 114% for the first, 99.3% for the second.

Compared with `N#CC1=C(N)Oc2c(oc(CO)cc2=O)C1c1ccc(Br)cc1` (stereo not drawn), `CCCc1[nH]nc2c1C(c1ccc(O)cc1)C(C#N)=C(N)O2` (stereo not drawn) is higher in cell viability: 96.5% for the first, 103% for the second.

First: CCOc1ccccc1C1C2CCCCC2(O)CCN1C(=O)/C=C/c1ccc(OC)cc1 (stereo not drawn)
Second: CCOc1ccccc1C1C2CCCCC2(O)CCN1CC(=O)Nc1sc2c(c1C(=O)OC)CCCC2 (stereo not drawn)
The cell viability of the first is lower: 101% for the first, 105% for the second.

Going from `CC(=O)OC1CCC2(C)C(CCC3(C)C2C(=O)C=C2C4CC(C)(C(=O)Nc5ccccc5[N+](=O)[O-])CCC4(C)CCC23C)C1(C)C` (stereo not drawn) to `COc1ccc(C2c3[nH]c4ccccc4c3CCN2CC(=O)NC2CCCCC2)cc1` (stereo not drawn), the cell viability falls from 108% to 83.7%.

Going from `O=C(CSc1ncnc2nc[nH]c12)NCCOc1ccc(Cl)cc1` to `CCc1ccccc1NC(=O)CSc1nc2c(=O)[nH]cnc2n1CC`, the cell viability rises from 95.2% to 97.7%.

Compared with `CC(=O)OC1C(CO)OC(n2cnc3c(N)ncnc32)C1OC(C)=O` (stereo not drawn), `Cc1cccc(NC(=O)CSc2nc3c(=O)[nH]cnc3n2C)c1C` is lower in cell viability: 99.7% for the first, 95.1% for the second.

Compared with `N#CC1=C(N)Oc2[nH]c(=O)[nH]c(=O)c2C1c1ccccc1` (stereo not drawn), `O=C(O)c1ccccc1-c1c2ccc(=O)c(Br)c-2oc2c(Br)c(O)ccc12` is lower in cell viability: 108% for the first, 103% for the second.

Compared with `O=C(Cn1c(=O)cc(C(=O)N2CCOCC2)c2ccccc21)Nc1ccc(F)cc1`, `CCN(CC)C(=O)c1cc(=O)n(CC(=O)Nc2ccc(F)cc2)c2ccccc12` is higher in cell viability: 89.1% for the first, 98.4% for the second.

Going from `O=c1[nH]c2c(-c3ccccc3)cccc2c(O)c1C(c1cccc(Br)c1)c1c(O)c2ccccc2n(-c2ccccc2)c1=O` (stereo not drawn) to `COc1ccc(/C=C(\NC(=O)c2ccc(Br)cc2)C(=O)NCCc2c(C)[nH]c3ccccc23)cc1`, the cell viability falls from 122% to 94.5%.

First: COc1cc(C2NC(=O)NC(C)=C2C(=O)OC2CCC(C)CC2)ccc1O (stereo not drawn)
Second: COc1cc(C2C(C(=O)OCCOc3ccccc3)=C(C)NC3=C2C(=O)CC(C)(C)C3)cc(OC)c1O (stereo not drawn)
The cell viability of the first is higher: 104% for the first, 89% for the second.

First: CCCc1cc(=O)[nH]c(SCC(=O)Nc2c(Cl)cccc2Cl)n1
Second: CCOC(=O)CNC(=O)c1c(Cl)cccc1Cl
The cell viability of the first is lower: 88.8% for the first, 108% for the second.

First: Cc1nc(NC(CC(C)C)C(=O)O)c2nc(C)oc2n1 (stereo not drawn)
Second: COc1c(C)cccc1C(=O)Nc1ccc2oc(=O)ccc2c1
The cell viability of the first is higher: 106% for the first, 102% for the second.

Going from `COc1cc(C(=O)Nc2ccccc2NC(=O)c2cc(OC)c(OC)c(OC)c2)cc(OC)c1OC` to `COc1cc(C2Nc3ccccc3NC3=C2C(=O)CC(c2ccccc2Cl)C3)cc(OC)c1OC` (stereo not drawn), the cell viability rises from 95.9% to 116%.

Compared with `COc1ccc(N2CCN(C(=O)c3c[nH]c4ccccc34)CC2)cc1`, `Cc1c(C(=O)N2CCOCC2)[nH]c2ccc(OCc3ccccc3)cc12` is lower in cell viability: 107% for the first, 102% for the second.

Compared with `O=C1C2OCC(O2)[C@H]2[C@@H]1[C@H]1C=Cc3ccccc3N1[C@@H]2C(=O)c1ccccc1` (stereo partly drawn), `O=C(Nc1ncn(Cc2ccccc2F)n1)c1ccc2c(c1)OCO2` is higher in cell viability: 89.2% for the first, 94.8% for the second.

Compared with `CCOc1ccc(-n2c(C)c(C(=O)OCCOC)c3cc(O)c4ccccc4c32)cc1`, `CCOc1ccc(NC(=O)Cn2c(=O)cc(C(=O)NC)c3ccccc32)cc1` is higher in cell viability: 67.9% for the first, 113% for the second.

Going from `Cc1cccc(OCCn2c3nc(=O)[nH]c(=O)c-3nc3cc(C(F)(F)F)ccc32)c1` to `Cc1ccc2[nH]c(=O)c(CN(CC3CCCO3)S(=O)(=O)c3cccc4nsnc34)cc2c1` (stereo not drawn), the cell viability rises from 102% to 112%.

First: COc1cc2c(cc1OC)/C(=C/c1ccc3c(c1)OCO3)C(=O)OC2
Second: N#Cc1nc2ccccc2n1CC(=O)c1ccc2c(c1)OCCO2
The cell viability of the first is lower: 88.9% for the first, 89% for the second.

Compared with `Cc1[nH]c2c(Cl)cccc2c1CCNC(=O)c1cc(S(=O)(=O)N(C)C)c(Cl)cc1Cl`, `O=c1ccc2cc(Cl)c(O)cc2o1` is higher in cell viability: 89.3% for the first, 92.8% for the second.

First: COc1ccc2c(c1)c(CC(=O)N1CCN(C(=O)c3ccccc3)CC1)c(C)n2C(=O)c1ccc(Cl)cc1
Second: O=c1[nH]c(=O)n(Cc2ccccc2)c2c1C(C(F)(F)F)(C(F)(F)F)N=C(c1ccccn1)N2
The cell viability of the first is higher: 96.3% for the first, 92.1% for the second.
